Experimental data reported in patent US6054258A, “Photographic elements containing high-boiling esters” (Eastman Kodak Company, priority 1998, dated 2000).

Key:
[1] = Lambda max of yellow dye produced from Y-1 on development; details: yellow dye from Y-1, blue density of about 1.0
[2] = Percent wash out of high-boiling solvent from films on washing in 38° C. water

SMILES | Lambda max [1] [nm] | % Washout 20 min 38° C. [2] [%]
CCCCOC(=O)c1ccccc1C(=O)OCCCC [B1, dibutyl phthalate] | 449 | 6.2
Cc1ccc(C(=O)OCCCc2ccccc2)cc1 [A3] | 449 | 4.0
